In article PMC5695821, “Pharmacological inhibition of RORγt suppresses the Th17 pathway and alleviates arthritis in vivo” (PLoS ONE, 2017):
These are yes or no findings as the source states them, for the method shown. Binding calls can cover weak binding; strength is not graded here.

Target: human RORγt ligand binding domain (264–518), His6-tagged (human)
Assay: FRET or BRET; TR-FRET in solution: 5 nM His6-tagged RORγt-LBD, 90 nM biotinylated RIP140 co-activator peptide, 0.45 nM Cy5-labelled streptavidin, 1.5 nM Europium-labelled anti-His6 antibody; 1 hr incubation with compound; emissions at 615 nm and 665 nm; both purified

NSHQKVTLLQLLLGHKNEEN (biotinyl-NH-Ahx at the N-terminus; C-terminal amide (CONH2)) [biotinylated RIP140 derived co-activator peptide]
binding: binds
